Results on 67 sequences are retold here after PubChem BioAssay AID1347423 (Functional Genomics Laboratory (NCATS/FGL), 2020).

The whole screen tested about 52,000 sequences, of which about 210 (0.4%) were called active.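 Rule for the calls: active = gene whose silencing raises cell survival under the drug, median off-target-corrected z-score across its silencing RNAs 2 or more; inactive = the rest.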 The list shows a part of the results.

The experiment is described as follows: Resistance to Poly (ADP-Ribose) Polymerase inhibitor: Gene Identification via Genome-wide siRNA Screen. Conditions: mouse BRCA2 R2336H ES cells, olaparib, CellTiter-Glo viability; active compounds read high. Put shortly: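 Mouse BRCA2 R2336H ES cells were reverse-transfected with siRNA (20 nM final), treated at 48 h with 500 nM olaparib, and read by CellTiter-Glo after 72 h. Scores: MAD-based z per siRNA, median per gene, seed off-target correction.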
Regarding GGCAAUGUGUCUUUGAUCATT against Lamc2, the z-score is inactive: -1.02.

As to GGCAUUUAAAACUCAUUGUTT against G6pdx, the z-score is inactive: -1.43.

In the case of GGACCAUCACUUCCAGCUATT against Rab1b, the z-score is inactive: -2.29.

Consider “GCUGUUUCGGAUUUGGAGATT against 2610205H19Rik”, for which the z-score was inactive: -1.44.

For CCGUCGUACUUGUUCUCCUTT against Otog, the z-score is inactive: -0.104.

Take GGAUCACGAAUGAAUCCGATT against Dcir2: the z-score was inactive: -0.271.

As to “GGCUUGGCUUUCAUGUUACTT against B930052A04Rik”, the z-score is inactive: -0.138.

Consider “GGAAAUUGAAGCAAAGAAGTT against A430065P19Rik”, for which the z-score was inactive: 0.0543.

Consider CGAUUACUACAUUACAUCATT against Efnb1, for which the z-score was inactive: 0.394.

As to GCACUCAUACCUUAAGCUUTT against Ocilrp1, the z-score was inactive: -0.191.

“GCUAGUACUAUUACCUGCUTT against E130303B06Rik”: the z-score was inactive: 1.15.

GGACAGAUGAUGAAGUUGUTT against Tra1: the z-score is inactive: -0.555.

For the sequence GGGCAGCACUGUGGUUAAUTT against Sh3md2, the z-score is inactive: -2.3.

On to GGGACACUCCACCUUUCAUTT against Notch4, for which the z-score was inactive: 0.596.

Regarding GCACCGGUGAAAAAGAAGATT against Pinx1, the z-score is inactive: -0.0213.

Take GGAAUGUUAACAAAGAGCATT against Sgcb: the z-score was inactive: 0.478.

For the sequence GGUUUUCCGGACAGACUUGTT against Phf15, the z-score was inactive: 1.46.

As for GGUGUUUACAACCUCACAATT against Pecr, the z-score is inactive: -0.519.

Consider “GGACUCAAGUGCAAGACACTT against D330017J20Rik”, for which the z-score was inactive: -0.806.

In the case of “GCCUGUAUGGAUGGAUUCCTT against 4631427C17Rik”, the z-score is inactive: 0.927.

For GCCAUUCAAUGAUACAAUGTT against Adamts19, the z-score was inactive: 1.07.

Consider GGUGUCAAGUGGAUUAUCCTT against Slc12a8, for which the z-score is inactive: -0.571.

Turning to GGGUCUUGUGAUCUCAAUUTT against Cyp2a5, the z-score was inactive: -0.769.

Turning to GGCACCUUCAAAUUACAUCTT against Asl, the z-score was inactive: -0.552.

Turning to GGAUGACUGUCUUCCAUCGTT against Hrg, the z-score was inactive: -0.938.

For “GGAGGUAUUUCAAAUUGCUTT against 2900057D21Rik”, the z-score is inactive: -1.69.

With GCCAUAGCGAUCACUACUGTT against Sfpi1, the z-score was inactive: 2.33.

In the case of GCAUCUCGUGUGACUUAAGTT against Ak1, the z-score is inactive: -0.383.

Turning to CCUCCUCCAAUUAAAGACATT against Crsp9, the z-score was inactive: 0.699.

As to CGUUCUUGAGAGUCGAUCATT against Smoc2, the z-score was inactive: -0.236.

Take GGGUGGACUGAAUGCUGAUTT against Qtrt1: the z-score is inactive: -1.25.

For GGCAAGACUGAGCAAGAUUTT against Catsper3, the z-score is inactive: 1.01.

For the sequence CCUAACAAGGGAAUAAAUGTT against Icosl, the z-score is inactive: 0.893.

On to GGCAGACAAGUUCACAGUGTT against Igsf6, for which the z-score is inactive: 0.557.

As to GCCACAAGAUACCAUCAGATT against Rex3, the z-score is inactive: 2.22.

Turning to GGGAGUGAUGGUACCCUAUTT against Myf6, the z-score was inactive: -1.17.

As to GGAAUUCAACUCAGAUAAGTT against C3, the z-score is inactive: -0.52.

Consider “GGUUAUGAUUGGUUUGAAGTT against 1500009M05Rik”, for which the z-score was inactive: 1.1.

For the sequence GGAAAUCUCUUCAUGGAUATT against Kng1, the z-score was inactive: -0.296.

As for GGACUUCAGCAAUGUCUUGTT against Rab17, the z-score was inactive: -0.933.

Take “GGAGCUAAGGUGGUACGAGTT against 2210008I11Rik”: the z-score is inactive: 0.461.

With AUAAGAUGUUGCUCGGAACTT against Olfr1193, the z-score is inactive: -0.282.

On to GCAUAAAGCACCCGGAGAGTT against Rog, for which the z-score is inactive: 0.0889.

For the sequence GGAUCAAGAAAAGAUGAAATT against Galnt1, the z-score was inactive: 1.41.

Consider GGCUCCCUUUUUUGUACUATT against Olfr1056, for which the z-score was inactive: 1.28.

On to GGCAAGAAAAAUCAGAUUGTT against Cyld, for which the z-score is inactive: 0.603.

For GGUUUUGGGCAAAAUUGAGTT against Edf1, the z-score was inactive: 0.714.

In the case of GGAUUACUGUGCUUCUAAUTT against Olfr788, the z-score is inactive: -0.505.

On to GGUGGCAGUAUGAAUUCGATT against Serpina12, for which the z-score was inactive: -0.379.

Turning to “GGAAUGGAAUAGCAGAGCUTT against 2610204K14Rik”, the z-score is inactive: 1.91.

Take GGUCUAGCUCAAAAUCCCATT against Sfrs12: the z-score is inactive: 0.22.

Regarding CCAUUUGAUGACAGUAAUATT against Olfr178, the z-score is inactive: -1.23.

With “GCCUGACACUUGAUAUGUATT against 2310067G05Rik”, the z-score is inactive: -0.735.

Take “GCCGAAGUAUCUGAUAGUCTT against D930038M13Rik”: the z-score is inactive: 0.438.

GGCAGAAAGCAGAAACAGUTT against Rage: the z-score was inactive: -1.19.

“GCCGCGUUUUGACUGAUCATT against B130021E18”: the z-score is inactive: -0.324.

Regarding GGCUUACAAAAAGUACAUCTT against Tpt1, the z-score was inactive: -1.37.

For GGUAGAAGAGGAAUCUUGGTT against Pitpnm1, the z-score is inactive: -0.206.

Regarding GGGUAGAGGCCUUGAAAAUTT against Gps1, the z-score was inactive: -2.12.

GGAAGAAAAACUCUUGCACTT against Cdc5l: the z-score is inactive: 0.196.

GCUGGAAUACGGAAAAUGGTT against Gbe1: the z-score is inactive: 0.204.

On to CGACCAAGAGCAAAACGAUTT against Gm266, for which the z-score is inactive: -0.945.

As for CCAUGUAAGAUGUUAAGUATT against Abcb1a, the z-score is inactive: 0.643.

With GGAAGAAGGCUAUAAGAAATT against Galnt6, the z-score was inactive: 0.266.

Turning to CGGUCAUUUACGAGAUACCTT against Pdgfa, the z-score is inactive: 0.441.

Turning to GGCCGGCCAGAUAAAGAAATT against Ptrf, the z-score is inactive: -0.143.

In the case of GGCCUUCAAGUGCAUGAUGTT against Yaf2, the z-score is inactive: 0.181.
